Laboratory results: PubChem BioAssay AID1439 (NMMLSC, 2008)
Among all 220,000 compounds or so, about 770 (0.35%) were called active. Inconclusive means that the source gave no clear call. Such entries were picked first, then a sample of the others. Cut-off read from the data, not from the text of the source: active = binding response below about 49% or above about 150%; inconclusive = no clear call, values can overlap the other calls; inactive = in between.

Chains of the proteins cited; added tags and fusions are not shown.
UniProt P09471, whole entry, looked up: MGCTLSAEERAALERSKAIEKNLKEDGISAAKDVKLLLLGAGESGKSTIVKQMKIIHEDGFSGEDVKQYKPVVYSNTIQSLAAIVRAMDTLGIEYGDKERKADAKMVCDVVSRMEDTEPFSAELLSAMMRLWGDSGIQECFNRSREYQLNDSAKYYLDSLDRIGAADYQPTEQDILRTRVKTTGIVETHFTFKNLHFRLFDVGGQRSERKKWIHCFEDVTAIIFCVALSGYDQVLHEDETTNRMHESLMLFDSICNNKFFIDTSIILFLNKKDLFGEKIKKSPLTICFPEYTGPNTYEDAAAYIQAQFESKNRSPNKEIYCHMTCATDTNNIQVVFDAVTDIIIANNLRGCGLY

The compounds below were run against Guanine nucleotide-binding protein G(o) subunit alpha (Homo sapiens) (UniProt P09471) (assay: RGS7-Galphao binding modulators, primary screen, biochemical, multiplexed bead flow cytometry (AID 1439;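 note: fluorescent Galphao held in activated GDP-AlF4 state binding bead-coupled RGS7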)). Details: at 10 µM, actives lie on both sides.

**Q.** With `CCCCC(CCC(=O)Nc1ccn(-c2ccccc2)n1)C(=O)O` (configuration not stated) as the compound, how does the binding response (% of control) read?
**A.** inconclusive: 80.4%

**Q.** With `COc1cccc(Nc2nnc(SCC(=O)N(CC(C)C)CC(C)C)s2)c1` as the compound, how does the binding response (% of control) read?
**A.** inactive: 97.2%

**Q.** `COc1ccc(N2CC(NC(=O)N3CCN(c4ccccc4)CC3)CC2=O)cc1` (configuration not stated) was tested. Which binding response (% of control) did it give?
**A.** inconclusive: 118%

**Q.** With `COc1cc(OC)c2ccc(=O)oc2c1C(CCN1CCN(c2ccccc2)CC1)c1ccc2c(c1)OCO2` (configuration not stated) as the compound, how does the binding response (% of control) read?
**A.** inconclusive: 112%

**Q.** For `CCCOC(=O)c1cccc(NC(=O)COc2ccc([N+](=O)[O-])cc2)c1`, which binding response (% of control) is on record?
**A.** inactive: 93.2%

**Q.** For `CC1c2ccccc2N(NC(=O)Cc2ccccc2)C1C` (configuration not stated), which binding response (% of control) is on record?
**A.** inconclusive: 148%

**Q.** With `CCC1=NN(C(=O)Cc2ccc([N+](=O)[O-])cc2)C(O)(c2ccncc2)C1` (configuration not stated) as the compound, how does the binding response (% of control) read?
**A.** inactive: 104%

**Q.** For `CC1=C(C(N)=O)S(=O)(=O)c2ccccc21`, which binding response (% of control) is on record?
**A.** inconclusive: 80.3%

**Q.** With `Cc1cccn2cc(-c3ccc4c(c3)NC(=O)CO4)nc12` as the compound, how does the binding response (% of control) read?
**A.** inconclusive: 90%

**Q.** `C[C@@]12CCC=C[C@H]1[C@H](c1ccoc1)N(Cc1ccccc1)C2=O` was tested. Which binding response (% of control) did it give?
**A.** inconclusive: 111%

**Q.** For `Cc1nnc(NC(=O)c2ccccc2NC(=O)c2ccccc2)s1`, which binding response (% of control) is on record?
**A.** inconclusive: 81.6%

**Q.** Which binding response (% of control) does the source give for `COc1ccc(N(CC(=O)NCCc2ccc(Cl)cc2)S(=O)(=O)c2c(C)[nH]c(=O)[nH]c2=O)cc1` here?
**A.** inactive: 102%

**Q.** `CC(=O)n1cc(N(C(=O)CCl)c2ccc(C)cc2)c2ccccc21` was tested. Which binding response (% of control) did it give?
**A.** inconclusive: 95.2%

**Q.** Which binding response (% of control) does the source give for `O=C(CSc1cccc[n+]1[O-])Nc1ccc(N2CCOCC2)cc1` here?
**A.** inconclusive: 96.9%

**Q.** How did the binding response (% of control) turn out when `COc1ccc(NC(=O)CS(=O)(=O)c2cn(CC(=O)N3CCOCC3)c3ccccc23)cc1` was run?
**A.** inactive: 91.5%

**Q.** For `C=CCN(C(=O)CSC1=NC(=O)CN1C(C)=O)c1nc(C)c(-c2ccccc2)s1`, which binding response (% of control) is on record?
**A.** inactive: 102%

**Q.** How did the binding response (% of control) turn out when `CCOC(=O)c1nn(-c2ccc3c(c2)OCCO3)cc1O` was run?
**A.** inconclusive: 103%

**Q.** Which binding response (% of control) does the source give for `Cc1ccccc1CSc1ccc2nnc(-c3ccccn3)n2n1` here?
**A.** inactive: 97.7%

**Q.** `CN(Cc1ccccc1)C(=O)c1ccccc1-c1ccccc1` was tested. Which binding response (% of control) did it give?
**A.** inconclusive: 109%

**Q.** With `O=Cc1ccc(OC(=O)c2cccnc2)cc1` as the compound, how does the binding response (% of control) read?
**A.** inconclusive: 75.4%

**Q.** Which binding response (% of control) does the source give for `O=C(CO/N=C/c1ccc(OC(F)F)cc1)NCc1ccc(F)cc1` here?
**A.** inconclusive: 99.5%

**Q.** With `CC(C)N(Cc1ccccc1)C(=S)Nc1ccc(F)cc1` as the compound, how does the binding response (% of control) read?
**A.** inconclusive: 105%

**Q.** How did the binding response (% of control) turn out when `CCN1CCN(C(=O)c2cc(COc3ccc4ncccc4c3)on2)CC1` was run?
**A.** inconclusive: 100%

**Q.** How did the binding response (% of control) turn out when `CC(NC(=O)C(=O)Nc1nccs1)c1ccccc1` (configuration not stated) was run?
**A.** inconclusive: 91.1%

**Q.** Which binding response (% of control) does the source give for `Cc1nc(SC(C)C(=O)Nc2cccc(C(F)(F)F)c2)c2c(C)c(C(=O)O)sc2n1` (configuration not stated) here?
**A.** inconclusive: 142%

**Q.** With `COc1cc(OC)cc(C(=O)N[C@H](C(=O)OCC(=O)N2CCc3ccccc32)C(C)C)c1` as the compound, how does the binding response (% of control) read?
**A.** inconclusive: 95.3%

**Q.** Which binding response (% of control) does the source give for `Brc1c(CSc2nncc3ccccc23)nc2ccccn12` here?
**A.** inconclusive: 102%

**Q.** Which binding response (% of control) does the source give for `Cc1ccc(CNCC(=O)Nc2cccc(S(=O)(=O)NC3=NCCCCC3)c2)cc1` here?
**A.** inconclusive: 87%

**Q.** How did the binding response (% of control) turn out when `O=C(Nc1nc2ccc([N+](=O)[O-])cc2s1)c1c(F)cccc1F` was run?
**A.** inconclusive: 104%

**Q.** With `O=C(O)c1ccccc1C(=O)NCC(O)COc1ccc(Cl)cc1` (configuration not stated) as the compound, how does the binding response (% of control) read?
**A.** inconclusive: 93%

**Q.** How did the binding response (% of control) turn out when `CC(C)(C)c1cc[n+](C2=C([O-])c3ccccc3C(=O)/C2=N\S(=O)(=O)c2cccs2)cc1` was run?
**A.** inconclusive: 87.9%

**Q.** `COC(=O)C1=C(C)NC2=C(C(=O)CCC2)C1c1ccc(-c2ccsc2C(=O)OC)o1` (configuration not stated) was tested. Which binding response (% of control) did it give?
**A.** inconclusive: 143%

**Q.** With `CN(C)NC(=S)NC1CC2CCC1C2` (configuration not stated) as the compound, how does the binding response (% of control) read?
**A.** inconclusive: 88.2%

**Q.** `CCCc1cc(-n2ccnc2)n2c(nc3ccccc32)c1C#N` was tested. Which binding response (% of control) did it give?
**A.** active: 151% [activator]

**Q.** `C=C(C)CSc1nc2sc3c(c2c(=O)n1C1CCCCC1)CCN(C)C3` was tested. Which binding response (% of control) did it give?
**A.** inconclusive: 25.2%

**Q.** With `Cc1cc(C)cc(NC(=O)NCc2c(-c3ccccc3)noc2C)c1` as the compound, how does the binding response (% of control) read?
**A.** inconclusive: 921%

**Q.** `COc1cccc(CN2CCNC(=O)C2CC(=O)NCCCn2ccnc2)c1` (configuration not stated) was tested. Which binding response (% of control) did it give?
**A.** inconclusive: 84.3%

**Q.** Which binding response (% of control) does the source give for `COc1ccc(C2CC(c3cccs3)=NN2S(C)(=O)=O)cc1` (configuration not stated) here?
**A.** inconclusive: 69.6%

**Q.** How did the binding response (% of control) turn out when `COc1ccccc1N1CCN(C(=O)CCCn2nc(C)c([N+](=O)[O-])c2C)CC1` was run?
**A.** inactive: 91.6%

**Q.** For `COc1cc(C(CCN2CCOCC2)c2c(OC)cc(OC)c3c(C)cc(=O)oc23)cc(OC)c1OC` (configuration not stated), which binding response (% of control) is on record?
**A.** inconclusive: 97.4%

**Q.** How did the binding response (% of control) turn out when `O=C(Nn1c(-c2ccncc2)nc2ccccc2c1=O)c1ccccc1Br` was run?
**A.** inconclusive: 99.5%

**Q.** `O=S(=O)(Nc1cccc(-c2nnco2)c1)c1ccc(Cl)cc1` was tested. Which binding response (% of control) did it give?
**A.** inconclusive: 119%

**Q.** With `COc1ccc(N2CCN(C(=S)NCc3ccccc3)CC2)cc1` as the compound, how does the binding response (% of control) read?
**A.** inconclusive: 124%

**Q.** With `C=CCNC(=S)NNC(=O)C(CCCC)CC(O)COCC(C)C` (configuration not stated) as the compound, how does the binding response (% of control) read?
**A.** inconclusive: -283%

**Q.** For `NC(Cc1cccc2nsnc12)C(=O)O` (configuration not stated), which binding response (% of control) is on record?
**A.** inactive: 95%

**Q.** For `CN1CCN(NC(=O)c2ccc(Br)s2)CC1`, which binding response (% of control) is on record?
**A.** inconclusive: 79.8%

**Q.** Which binding response (% of control) does the source give for `O=S(=O)(c1ccc(Cl)nc1)N1CCN(c2ncccn2)CC1` here?
**A.** inconclusive: 98.3%

**Q.** With `N#Cc1cc2c([nH]c1=O)CCCC2` as the compound, how does the binding response (% of control) read?
**A.** inconclusive: 122%

**Q.** How did the binding response (% of control) turn out when `Cc1ccccc1Nc1scc(-c2ccc(Cl)cc2)[n+]1-c1ccccc1C` was run?
**A.** inactive: 102%

**Q.** With `CCOc1ccc2[nH]c3c(=O)n(CCC4=CCCCC4)cnc3c2c1` as the compound, how does the binding response (% of control) read?
**A.** inconclusive: 92.1%

**Q.** Which binding response (% of control) does the source give for `COc1ccc(CCN2C(=S)N(C)C(=O)C2CC(=O)Nc2ccc(F)cc2)cc1` (configuration not stated) here?
**A.** inconclusive: 105%

**Q.** With `CC1CC(C)CN(CCCNC(=O)C2CCN(c3ncnc4c3sc3cccc(F)c34)CC2)C1` (configuration not stated) as the compound, how does the binding response (% of control) read?
**A.** inconclusive: 88.7%

**Q.** Which binding response (% of control) does the source give for `Cc1cccc(C(=O)NCCNc2nc3cc(C)c(C)cc3cc2C)c1` here?
**A.** inconclusive: 98.4%

**Q.** `Cc1ccc2c(c1)COc1c3ccc(C(=O)N[C@@H](C)CO)cc3nn1-2` was tested. Which binding response (% of control) did it give?
**A.** inconclusive: 57.4%

**Q.** How did the binding response (% of control) turn out when `COc1ccc(N2CCN(S(=O)(=O)c3cn(C)c(=O)n(C)c3=O)CC2)cc1` was run?
**A.** inconclusive: 116%

**Q.** With `COc1ccc(-c2ccnc(-c3ccncc3)n2)cc1` as the compound, how does the binding response (% of control) read?
**A.** inconclusive: 98.1%

**Q.** With `O=C(COC(=O)COc1ccccc1)Nc1ccc(S(=O)(=O)N2CCOCC2)cc1` as the compound, how does the binding response (% of control) read?
**A.** inconclusive: 102%
